According to publication PMC8501799, “Constitutive signal bias mediated by the human GHRHR splice variant 1” (Proceedings of the National Academy of Sciences of the …, 2021):
Positions count from the first letter of the chain named. These are yes or no findings as the source states them, for the method shown. Binding seen in cells or lysates may run through a third protein. Some results given as binding are weak or reduced against the parent protein; the word gives no strength. For some assays here: Where a sequence is shown, tags or fusion partners need not be part of it.

Amino acid sequences for entries named in this document (tags omitted).
UniProt P49407: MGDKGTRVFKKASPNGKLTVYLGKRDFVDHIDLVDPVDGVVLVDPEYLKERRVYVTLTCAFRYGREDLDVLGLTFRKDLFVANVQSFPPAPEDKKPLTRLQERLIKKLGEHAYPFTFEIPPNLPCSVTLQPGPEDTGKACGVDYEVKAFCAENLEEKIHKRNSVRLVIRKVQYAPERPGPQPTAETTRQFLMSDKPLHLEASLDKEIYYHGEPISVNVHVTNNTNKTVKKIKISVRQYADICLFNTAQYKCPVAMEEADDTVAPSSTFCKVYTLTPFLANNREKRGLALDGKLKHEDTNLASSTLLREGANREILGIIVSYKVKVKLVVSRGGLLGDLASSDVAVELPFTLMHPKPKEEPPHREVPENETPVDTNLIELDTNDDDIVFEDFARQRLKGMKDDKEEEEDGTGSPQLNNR

Assays:
Test in all cases: FRET or BRET; β-arrestin 1/2 recruitment assay in live HEK293T cells co-transfected with receptor-Rluc8 and β-arrestin 1/2-Venus (1:9 mass ratio); coelenterazine h; started with 250 μM GHRH; AUC of the BRET time course (535 nm/470 nm) normalised to WT GHRHR = 100%
GHRHR N296A (human) = biological target: T1, GHRHR N296A (human) (UniProt Q02643)
T1 sequence: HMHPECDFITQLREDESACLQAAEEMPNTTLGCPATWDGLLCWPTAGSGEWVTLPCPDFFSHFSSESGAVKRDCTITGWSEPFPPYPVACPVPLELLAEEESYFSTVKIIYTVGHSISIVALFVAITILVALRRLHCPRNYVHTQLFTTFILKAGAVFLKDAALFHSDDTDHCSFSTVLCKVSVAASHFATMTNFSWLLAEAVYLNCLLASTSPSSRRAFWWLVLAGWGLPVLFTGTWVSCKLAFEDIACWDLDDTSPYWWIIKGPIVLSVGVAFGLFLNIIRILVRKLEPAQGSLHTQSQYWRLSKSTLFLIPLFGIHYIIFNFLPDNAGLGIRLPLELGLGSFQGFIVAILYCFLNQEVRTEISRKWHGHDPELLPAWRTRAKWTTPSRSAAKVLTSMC

GHRHR F85A (human) = biological target: T2, GHRHR F85A (human) (UniProt Q02643)
T2 sequence: T1 sequence with F63A, A274N

GHRHR F338A (human) = biological target: T3, GHRHR F338A (human) (UniProt Q02643)
T3 sequence: T1 sequence with A274N, F316A

GHRHR F82A (human) = biological target: T4, GHRHR F82A (human) (UniProt Q02643)
T4 sequence: T1 sequence with F60A, A274N

[1] = biological target: T5, HA-Flag-GHRHR-Rluc8 (human) (UniProt Q02643)
T5 sequence: T1 sequence with A274N

binding (GHRHR N296A (human)): binds | binding (GHRHR F85A (human)): binds | binding (GHRHR F338A (human)): binds | binding (GHRHR F82A (human)): binds | binding [1]: binds
Substance: β-arrestin 1-Venus (from UniProt P49407 1-418)
